Data published in US20110293635A1.
No constants are given. Whether binding was seen depends on the method and setting. In cells and extracts the contact can be indirect. Some binding calls cover weakened binding; strength is not graded here.

By UniProt entry, the sequences of proteins in these tests, tags left out. Where a name states a change or a piece, a line headed by the entry shows the natural chain unless it says otherwise.
UniProt O00206: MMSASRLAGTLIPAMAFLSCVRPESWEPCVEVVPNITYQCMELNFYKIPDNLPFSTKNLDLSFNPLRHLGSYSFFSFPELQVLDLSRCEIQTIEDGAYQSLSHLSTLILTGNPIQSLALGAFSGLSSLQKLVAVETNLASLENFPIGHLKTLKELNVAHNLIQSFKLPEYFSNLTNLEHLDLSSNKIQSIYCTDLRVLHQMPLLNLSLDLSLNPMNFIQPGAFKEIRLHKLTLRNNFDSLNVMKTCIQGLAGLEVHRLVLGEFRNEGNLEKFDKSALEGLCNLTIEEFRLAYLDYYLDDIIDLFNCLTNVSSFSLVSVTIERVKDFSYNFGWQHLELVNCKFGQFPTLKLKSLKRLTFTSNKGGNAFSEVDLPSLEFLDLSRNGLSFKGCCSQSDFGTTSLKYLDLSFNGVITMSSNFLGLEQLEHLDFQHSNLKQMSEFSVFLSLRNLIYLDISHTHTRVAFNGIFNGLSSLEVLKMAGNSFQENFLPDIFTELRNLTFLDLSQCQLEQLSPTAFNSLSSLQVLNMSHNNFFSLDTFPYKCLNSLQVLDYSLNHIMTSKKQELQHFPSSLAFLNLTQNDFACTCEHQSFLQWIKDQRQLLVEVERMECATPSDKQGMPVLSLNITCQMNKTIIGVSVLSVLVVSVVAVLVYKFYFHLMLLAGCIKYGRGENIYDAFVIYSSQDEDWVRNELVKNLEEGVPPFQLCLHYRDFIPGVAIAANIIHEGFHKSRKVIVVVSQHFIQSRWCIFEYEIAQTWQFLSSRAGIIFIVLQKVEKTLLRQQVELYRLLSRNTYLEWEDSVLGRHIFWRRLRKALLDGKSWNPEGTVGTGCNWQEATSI
UniProt O60603: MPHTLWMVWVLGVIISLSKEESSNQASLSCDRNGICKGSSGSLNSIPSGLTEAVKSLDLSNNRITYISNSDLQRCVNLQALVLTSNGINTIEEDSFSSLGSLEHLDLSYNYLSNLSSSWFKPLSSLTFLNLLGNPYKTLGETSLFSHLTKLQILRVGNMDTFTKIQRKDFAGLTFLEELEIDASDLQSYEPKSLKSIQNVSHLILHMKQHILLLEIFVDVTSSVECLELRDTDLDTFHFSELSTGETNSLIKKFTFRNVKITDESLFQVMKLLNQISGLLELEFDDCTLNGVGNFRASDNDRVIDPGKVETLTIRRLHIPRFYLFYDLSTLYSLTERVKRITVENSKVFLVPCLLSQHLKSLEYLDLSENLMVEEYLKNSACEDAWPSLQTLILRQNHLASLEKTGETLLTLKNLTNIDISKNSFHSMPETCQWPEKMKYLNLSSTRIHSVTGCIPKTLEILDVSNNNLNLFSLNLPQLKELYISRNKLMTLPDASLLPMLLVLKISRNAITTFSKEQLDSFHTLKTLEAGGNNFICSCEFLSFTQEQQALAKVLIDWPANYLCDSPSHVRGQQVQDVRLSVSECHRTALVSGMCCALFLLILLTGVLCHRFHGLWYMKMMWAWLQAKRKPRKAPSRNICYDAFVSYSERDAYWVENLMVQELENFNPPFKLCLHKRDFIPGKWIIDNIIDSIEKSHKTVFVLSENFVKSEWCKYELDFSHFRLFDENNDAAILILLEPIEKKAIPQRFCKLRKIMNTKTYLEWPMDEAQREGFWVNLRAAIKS

Legend:
[1] = target: Flag tagged TLR4 (human) (UniProt O00206); experiment: co-immunoprecipitation (Flag beads) from TLR4-transfected HEK293 cells, LPS time course 0 minutes to 24 hours, immunoblot for TLR14
[2] = target: Flag tagged TLR2 (UniProt O60603); experiment: co-immunoprecipitation (Flag beads) from TLR2-transfected HEK293 cells, Pam2Cys4 for 2 hours, immunoblot for TLR14
[3] = target: Flag tagged TLR2 (UniProt O60603); experiment: co-immunoprecipitation (Flag beads) from transfected HEK293 cells, immunoblot for TLR14
[4] = target: Flag tagged TLR4 (human) (UniProt O00206); experiment: as above
[5] = target: Flag tagged TLR4 (human) (UniProt O00206); experiment: co-immunoprecipitation (Flag beads) from TLR4-transfected HEK293 cells after LPS, immunoblot for TLR14
[6] = target: Flag tagged TLR4 (human) (UniProt O00206); experiment: co-immunoprecipitation (Flag beads) from TLR4-transfected HEK293 cells, LPS for 2 hours, immunoblot for TLR14

binding [1]: binds
binding [2]: binds
binding [3]: binds
binding [4]: binds
binding [5]: binds
binding [6]: binds
B1: endogenous Toll-like Receptor 14 (TLR14) (receptor)
chain: VCPERCDCQHPQHLLCTNRGLRVVPKTSSLPSPHDVLTYSLGGNFITNITAFDFHRLGQLRRLDLQYNQIRSLHPKTFEKLSRLEELYLGNNLLQALAPGTLAPLRKLRILYANGNEISRLSRGSFEGLESLVKLRLDGNALGALPDAVFAPLGNLLYLHLESNRIRFLGKNAFAQLGKLRFLNLSANELQPSLRHAATFAPLRSLSSLILSANSLQHLGPRIFQHLPRLGLLSLRGNQLTHLAPEAFWGLEALRELRLEGNRLSQLPTALLEPLHSLEALDLSGNELSALHPATFGHLGRLRELSLRNNALSALSGDIFAASPALYRLDLDGNGWTCDCRLRGLKRWMGDWHSQGRLLTVFVQCRHPPALRGKYLDYLDDQQLQNGSCADPSPSASLTADRRRQPLPTAAGEEMTPPAGLAEELPPQPQLQQQGRFLAGVAWDGAARELVGNRSALRLSRRGPGLQQPSPSVAAAAGPAPQSLDLHKKPQRGRPTRADPALAEPTPTASPGSAPSPAGDPWQRATKHRLGTEHQERAAQSDGGAGLPPLVSDPCDFNKFILCNLTVEAVGADSASVRWAVREHRSPRPLGGARFRLLFDRFGQQPKFHRFVYLPESSDSATLRELRGDTPYLVCVEGVLGGRVCPVAPRDHCAGLVTLPEAGSRGGVDYQLLTLALLTVNALLVLLALAAWASRWLRRKLRARRKGGAPVHVRHMYSTRRPLRSMGTGVSADFSGFQSHRPRTTVCALSEADLIEFPCDRFMDSAGGGAGGSLRREDRLLQRFAD
